Our source for the viability values is PubChem BioAssay AID601 (SRMLSC, 2007).

The list shows a part of the results. Some results for these compounds are left out of this collection, so the calls shown say nothing about other tests.

The nature of this experiment: reversal of MRP1-mediated doxorubicin resistance, pilot screen, H69AR cells, doxorubicin co-treatment (AID 601). The following applies: H69AR cells + 2 uM doxorubicin, CellTiter-Glo, 72 h; measured here: viability with 2 uM doxorubicin; at 10 µM; stronger effect = lower value. A general note: In ATP-based viability assays light output follows the ATP content of the culture.
Broadly, the viability is a per cent measure of how many cells are alive, often set against a control. For the molecule `O=C(OC1CN2CCC1CC2)C(CO)(c1ccccc1)c1ccccc1` (stereo unspecified), the viability amounted to 77.7%.
